This passage reports binding results from paper PMC7835958.

The chains behind the UniProt entries cited, without tags or fusion partners. Residues count along the entry.
UniProt Q7Z4V5, residues 469-549: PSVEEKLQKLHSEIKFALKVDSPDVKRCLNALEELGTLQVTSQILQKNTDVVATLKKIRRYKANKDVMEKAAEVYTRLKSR

These are yes or no findings as the source states them, for the method shown. Some results given as binding are weak or reduced against the parent protein; the word gives no strength.

The experiment concerns the target HRP-2_(469–549) (human) (UniProt Q7Z4V5). Briefly: NMR titration; chemical shift perturbations in the HRP-2 IBD backbone induced by binding of JPO2 (1–130) or POGZ (1117–1410); Figure S2; both purified.

B1: JPO2 (amino acids 1–130) (domain or fragment, UniProt Q96GN5 1-130)
chain: MELATRYQIPKEVADIFNAPSDDEEFVGFRDDVPMETLSSEESCDSFDSLESGKQQDVRFHSKYFTEELRRIFIEDTDSETEDFAGFTQSDLNGKTNPEVMVVESDLSDDGKASLVSEEEEDEEEDKATP
Regarding B1, the binding entry was “binds”.

B2: POGZ (amino acids 1117–1410) (domain or fragment, UniProt Q7Z3K3 1117-1410)
chain: LPLSMIVAIDEISLFLDTEVLSSDDRKENALQTVGTGEPWCDVVLAILADGTVLPTLVFYRGQMDQPANMPDSILLEAKESGYSDDEIMELWSTRVWQKHTACQRSKGMLVMDCHRTHLSEEVLAMLSASSTLPAVVPAGCSSKIQPLDVCIKRTVKNFLHKKWKEQAREMADTACDSDVLLQLVLVWLGEVLGVIGDCPELVQRSFLVASVLPGPDGNINSPTRNADMQEELIASLEEQLKLSGEHSESSTPRPRSSPEETIEPESLHQLFEGESETESFYGFEEADLDLMEI
Regarding B2, the binding entry is reported as “binds”.
